Reference: article PMC7819943, “Rice protein-binding microarrays: a tool to detect cis-acting elements near promoter regions in rice”
The other results are listed elsewhere or left out.

The chains behind the UniProt entries cited, without tags or fusion partners.
UniProt Q0JBA9, entry or part of it: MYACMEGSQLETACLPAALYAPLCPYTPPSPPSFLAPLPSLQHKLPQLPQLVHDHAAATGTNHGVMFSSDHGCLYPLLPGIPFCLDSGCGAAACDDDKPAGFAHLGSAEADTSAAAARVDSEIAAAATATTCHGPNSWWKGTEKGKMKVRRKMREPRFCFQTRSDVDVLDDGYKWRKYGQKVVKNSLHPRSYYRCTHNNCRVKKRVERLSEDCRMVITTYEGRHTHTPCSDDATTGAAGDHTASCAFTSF

The sequences below were run against OsWRKY34 (Oryza sativa, UniProt Q0JBA9 1-250) (assay: protein-binding microarray (RPBM); PBS, 2% BSA, 51.3 ng/ul salmon testes DNA, 50 uM zinc acetate, 200 nM TF, 25 C, 1 h; high values mean tight binding). Conditions: protein: recombinant; tags: N-terminal polyhistidine and DsRed monomer fusion (pET32a); label: CyDye5-dUTP incorporated in the synthesized complementary strand; 3' TTTTT single-stranded linker to array surface; dsDNA, one strand shown.
In short: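 Polyhistidine-tagged DsRed fusions of transcription factors, joined at the N-terminus, were expressed in E. coli BL21-CodonPlus and isolated on Ni–NTA. They were incubated at 200 nM for 1 h at 25 °C on a custom Agilent array, double-stranded and BSA-blocked, in PBS with 2% BSA, salmon testes DNA and 50 µM zinc acetate. The binding signal is per-feature fluorescence intensity (arbitrary units) read on an Axon 4000B scanner after washing.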
With “TGGTTGTACAATTTTCATGTTATTTGGAAAAATAGCCTTACGGAGTCACCTAGTGCAG” the binding signal was 8050 fluorescence intensity (a.u.).
For “ACTCCACTCACACTACTGTCACCAACCTTATCTACAAATTCGGAGTCACCTAGTGCAG”, the binding signal was 11200 fluorescence intensity (a.u.).
For “CCCTTCATTCCATTTTAAGTGCAGTTATGGGTTTCTTTGTCGGAGTCACCTAGTGCAG”, the binding signal was 9250 fluorescence intensity (a.u.).
With “ACAACAACGATACTCCACCCTCGTTCATAGCGCACCCCTACGGAGTCACCTAGTGCAG” the binding signal was 8170 fluorescence intensity (a.u.).
With “TTTTATTTAGCTGTTCTTCTTTTGGATTTACTATCTTTTTCGGAGTCACCTAGTGCAG” the binding signal was 10300 fluorescence intensity (a.u.).
“AGAGTGGTGTGGGTGTGTGGGCATCTGATTTTTCTCTCCACGGAGTCACCTAGTGCAG” was tested, and the binding signal was 11400 fluorescence intensity (a.u.).
For “AACTTTCAACTTTTCCGTCACATCGAACTTTTCTACACACCGGAGTCACCTAGTGCAG”, the binding signal was 9860 fluorescence intensity (a.u.).
For “CGTCAAGAAAGTTAATATAGTTTGGGGTTTATAATATTTTCGGAGTCACCTAGTGCAG”, the binding signal was 9170 fluorescence intensity (a.u.).
In the case of “GATTAAAGTCAAACTACTTCATATTTGACCAAGTTTATAGCGGAGTCACCTAGTGCAG”, the binding signal is reported as 8490 fluorescence intensity (a.u.).
“AGGAGGAAGAAGAAGAGGGGTTGGTTGTTGTTGGCCGGAGCGGAGTCACCTAGTGCAG” was tested, and the binding signal was 10200 fluorescence intensity (a.u.).
“GGGGTGGGTGCGACTACGACTACGACCTCTTCACCATCGGCGGAGTCACCTAGTGCAG” was tested, and the binding signal was 9500 fluorescence intensity (a.u.).
In the case of “CATTTCTCTATTCAACTTCGCCATCTTGATTAGTCCCTGTCGGAGTCACCTAGTGCAG”, the binding signal is reported as 9480 fluorescence intensity (a.u.).
“ATGAACTCTACAAGTCATTTTGTCGCCATCAGCTTCTTTCCGGAGTCACCTAGTGCAG” was tested, and the binding signal was 9360 fluorescence intensity (a.u.).
With “ATCACTGCACGCTGACCACTTCTCACCTTCTTTGCTAGTGCGGAGTCACCTAGTGCAG” the binding signal was 10500 fluorescence intensity (a.u.).
“TTTTAATTTTTTTTCCTTATACATTTCCTTTGCTTTTTTTCGGAGTCACCTAGTGCAG” was tested, and the binding signal was 8250 fluorescence intensity (a.u.).
“CCTGCATAACAAACTGCTTTGACTTTTTTCTGACACTTATCGGAGTCACCTAGTGCAG” was tested, and the binding signal was 12800 fluorescence intensity (a.u.).
“TCCACTCTACTCTTCGTGTGTCTTTCTCATTCCCACGCTCCGGAGTCACCTAGTGCAG” was tested, and the binding signal was 11400 fluorescence intensity (a.u.).
In the case of “CCTAATCACCTCGATCATTCGCTACGTTTTTGCTTGTTCACGGAGTCACCTAGTGCAG”, the binding signal is reported as 9200 fluorescence intensity (a.u.).
For “CTCTCCTCTCCTCGCTTCTTCGTCTCGCTTGCTCGCTCGCCGGAGTCACCTAGTGCAG”, the binding signal was 8550 fluorescence intensity (a.u.).
For “AGAAGGTGGGGTTAGGGTCATGATGGTATGCTGAGCAGTGCGGAGTCACCTAGTGCAG”, the binding signal was 8420 fluorescence intensity (a.u.).
For “ACCCTAATTCCATCCACCGCTCGATCCAATCTACCCTCTCCGGAGTCACCTAGTGCAG”, the binding signal was 9640 fluorescence intensity (a.u.).
“TACTCACATTACTCTATATAATGCTCTCTCATATTGTTTTCGGAGTCACCTAGTGCAG” was tested, and the binding signal was 13900 fluorescence intensity (a.u.).
In the case of “GCATTTAAAGTATTTTTATACACTCCGTCCATTTACAAATCGGAGTCACCTAGTGCAG”, the binding signal is reported as 8120 fluorescence intensity (a.u.).
“CCTTGTTACTTTATCACTTCAGCATGGTCATAACATCATTCGGAGTCACCTAGTGCAG” was tested, and the binding signal was 8100 fluorescence intensity (a.u.).
In the case of “GTTTGCTGTTTTTCTTGCCTTGTTCTAACAATAGCATTTCCGGAGTCACCTAGTGCAG”, the binding signal is reported as 8740 fluorescence intensity (a.u.).
With “TTTTTTACCCTTAGATCTATTCATCCAATGGCTTATATCACGGAGTCACCTAGTGCAG” the binding signal was 9060 fluorescence intensity (a.u.).
“CTTCTTCTTCTTCCTGAGGTGGGTCAGGGTGGGCGTGGATCGGAGTCACCTAGTGCAG” was tested, and the binding signal was 14800 fluorescence intensity (a.u.).
For “GCTCATCGTCATCACACGTCGCCGTCCCTTTCGGTTTCATCGGAGTCACCTAGTGCAG”, the binding signal was 11800 fluorescence intensity (a.u.).
For “GGACCCAACCCTACCCTTGTCAGTTGTATTAAGCATTTTTCGGAGTCACCTAGTGCAG”, the binding signal was 11300 fluorescence intensity (a.u.).
For “ACCTTATTTACACGGTTTTGTAAGTTGGGAGATACGTTATCGGAGTCACCTAGTGCAG”, the binding signal was 8500 fluorescence intensity (a.u.).
In the case of “CTCTTGTCGCCATCGCATCCCCGTCGCGTCTCCATCTTGTCGGAGTCACCTAGTGCAG”, the binding signal is reported as 9960 fluorescence intensity (a.u.).
For “TTAATTGTGCCGCTATAGATCTAGTCGTTGTTTGTGCTTTCGGAGTCACCTAGTGCAG”, the binding signal was 12500 fluorescence intensity (a.u.).
In the case of “GCACGCAGCTTTTCTTTCTTGGCCTCGCCTCGCCTCGCCTCGGAGTCACCTAGTGCAG”, the binding signal is reported as 8900 fluorescence intensity (a.u.).
In the case of “CTTATCATTTACATGCAGGACCTACTTCTATTTTTAATTCCGGAGTCACCTAGTGCAG”, the binding signal is reported as 8780 fluorescence intensity (a.u.).
In the case of “TTCTTTTGCATCGCCCTTGATCGTGCTCCCTTGTCAAAGTCGGAGTCACCTAGTGCAG”, the binding signal is reported as 8250 fluorescence intensity (a.u.).
“ATGGGTGGAGGAGTGGGAGGGGATTAAATATCGGCGGAGGCGGAGTCACCTAGTGCAG” was tested, and the binding signal was 9240 fluorescence intensity (a.u.).
“GGAGCCACCGCTGCCGTCCCACTCTCCCGTTATTGCCGCCCGGAGTCACCTAGTGCAG” was tested, and the binding signal was 8230 fluorescence intensity (a.u.).
In the case of “CATCCAAGCTGCTCGTCGCGCTATCTATACATGACACGCCCGGAGTCACCTAGTGCAG”, the binding signal is reported as 8910 fluorescence intensity (a.u.).
“TAATATATGATCATACTTGTTTTATATACATTGTGTCTTGCGGAGTCACCTAGTGCAG” was tested, and the binding signal was 9830 fluorescence intensity (a.u.).
“GCTTCCCCTGTTTCTTGTTTGTTGAGTGGATTGAATGGAGCGGAGTCACCTAGTGCAG” was tested, and the binding signal was 8430 fluorescence intensity (a.u.).
With “TGACGCCGAGCAGGACGCCGGCGCAGAGCCCTCCTTTCCCCGGAGTCACCTAGTGCAG” the binding signal was 8480 fluorescence intensity (a.u.).
For “TCCACAAACCATCATAGGCGTCGCATCCACACCTGTTTCCCGGAGTCACCTAGTGCAG”, the binding signal was 9110 fluorescence intensity (a.u.).
With “ATTGTAACTTCCCTTTCTGTTGCTGAAACATTTACTTAGTCGGAGTCACCTAGTGCAG” the binding signal was 8580 fluorescence intensity (a.u.).
In the case of “TCCGCCGCTTCATCTGAATCCCCAAGGATCTCGTCCACGCCGGAGTCACCTAGTGCAG”, the binding signal is reported as 9640 fluorescence intensity (a.u.).
With “TCCACGACCTCTGCCGCCCGAGCTCCATGTCTACCGCCACCGGAGTCACCTAGTGCAG” the binding signal was 9300 fluorescence intensity (a.u.).
“ATTTCAGGCCCACTAGTCCGCTCTTCCTCTTCTTTTTTTTCGGAGTCACCTAGTGCAG” was tested, and the binding signal was 9840 fluorescence intensity (a.u.).
For “CTGCCTGCGCGCACCACCACCTGCTGCTCTCTCTCTCTCGCGGAGTCACCTAGTGCAG”, the binding signal was 9930 fluorescence intensity (a.u.).
In the case of “GTTCGCCACCGCCCCGTCCCGCTCCGTGCCGCCGGCTTCGCGGAGTCACCTAGTGCAG”, the binding signal is reported as 8360 fluorescence intensity (a.u.).
“AAATTGTATTTCTATATGGGTCCTGCTTTTTCTTTTTCTCCGGAGTCACCTAGTGCAG” was tested, and the binding signal was 10600 fluorescence intensity (a.u.).
With “GTCTTTCATTCATGGTTAGCTCTTAATTGGTCAAACTAATCGGAGTCACCTAGTGCAG” the binding signal was 10600 fluorescence intensity (a.u.).
With “GGGAGGGGAGCTCTCGCGTCGCCTCCGTAAGGTGGGGTGTCGGAGTCACCTAGTGCAG” the binding signal was 8700 fluorescence intensity (a.u.).
“GCCTTTTTTTTTCCCACCCATTCGCTCACGCATCTCATTTCGGAGTCACCTAGTGCAG” was tested, and the binding signal was 8750 fluorescence intensity (a.u.).
“CACACTTGTTCCATTGTTGGTCTTCTCACCAATACATTTGCGGAGTCACCTAGTGCAG” was tested, and the binding signal was 8180 fluorescence intensity (a.u.).
For “TCACCACTGCTGCTCTCGCTGCCGTCCTTGTTCTTCGCGCCGGAGTCACCTAGTGCAG”, the binding signal was 8110 fluorescence intensity (a.u.).
